{
  "sequences": {"note": "By UniProt entry, the sequences of proteins in these tests, tags left out. Residues count along the entry.", "UniProt P77774, residues 21-392": "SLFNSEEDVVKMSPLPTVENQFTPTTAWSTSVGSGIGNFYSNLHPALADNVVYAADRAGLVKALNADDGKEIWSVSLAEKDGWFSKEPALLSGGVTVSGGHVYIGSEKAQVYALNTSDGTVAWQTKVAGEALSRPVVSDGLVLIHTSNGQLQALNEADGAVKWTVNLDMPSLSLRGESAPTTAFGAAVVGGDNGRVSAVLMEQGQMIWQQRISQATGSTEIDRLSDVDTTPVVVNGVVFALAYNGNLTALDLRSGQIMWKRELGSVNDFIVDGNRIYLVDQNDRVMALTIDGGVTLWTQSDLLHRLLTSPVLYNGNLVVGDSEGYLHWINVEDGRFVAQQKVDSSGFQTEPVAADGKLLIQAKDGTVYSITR"},
  "source": "paper PMC3506653",
  "biological_target": "E. coli BamB (E. coli) (UniProt P77774)",
  "test": "ITC; peptide titrated into ecBamB in the cell (203 µM LamB peptide on 25 µM ecBamB; 1.5 mM BtuB peptide on 17 µM ecBamB); iTC 200, 25°C, buffer A (25 mM TrisHCl pH 8.0, 150 mM NaCl); peptide into buffer as control; both purified",
  "note": "Results are given in words; binding and its absence hold for the method and conditions named.",
  "data": [
    {"binder": "DFHGYARSGIGWT", "note": "[peptide derived from the β-barrel of LamB]", "values": [
      {"measurement": "binding", "value": "no binding (tested: 203 µM LamB peptide on 25 µM ecBamB)"}
    ]}
  ]
}
